From ChEMBL document CHEMBL1146292, “Dual serotonin transporter/histamine H3 ligands: Optimization of the H3 pharmacophore” (Bioorg Med Chem Lett, 2007) come the findings set out here.

By UniProt entry, the sequences of proteins in these tests, tags left out. Where a name states a change or a piece, a line headed by the entry shows the natural chain unless it says otherwise.
UniProt Q9Y5N1: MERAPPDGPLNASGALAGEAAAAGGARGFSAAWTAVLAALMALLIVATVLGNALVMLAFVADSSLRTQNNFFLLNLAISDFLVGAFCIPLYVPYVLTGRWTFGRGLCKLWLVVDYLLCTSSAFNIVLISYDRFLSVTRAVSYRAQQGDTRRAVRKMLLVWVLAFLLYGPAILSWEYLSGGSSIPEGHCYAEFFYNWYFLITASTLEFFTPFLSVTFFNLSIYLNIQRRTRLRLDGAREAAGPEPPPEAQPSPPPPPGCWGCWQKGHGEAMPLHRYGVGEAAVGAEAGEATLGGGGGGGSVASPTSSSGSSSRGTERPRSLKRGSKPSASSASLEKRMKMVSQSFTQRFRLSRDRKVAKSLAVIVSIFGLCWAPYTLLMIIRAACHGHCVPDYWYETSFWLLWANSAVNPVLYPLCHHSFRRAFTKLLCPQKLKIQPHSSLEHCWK

The assay addresses Histamine H3 receptor (Homo sapiens, UniProt Q9Y5N1). In words: Binding affinity to human histamine H3 receptor. An outline of the steps: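 Means of at least three independent experiments, each run in triplicate; standard error of the mean reported.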

Take `CNCCC(Oc1ccc(C(F)(F)F)cc1)c1ccccc1` (stereo unspecified) [FLUOXETINE]: the affinity corresponds to a Ki of 7.3 µM.

As a reminder, the Ki is the dissociation constant of the complex between target and ligand, obtained from inhibition or displacement. Higher therefore signals a looser hold on the target.
